PubChem BioAssay AID540276 (National Center for Advancing Translational Sciences (NCATS), 2011)
The whole screen tested about 300,000 compounds, of which about 5,400 (1.8%) were called active. The inconclusive results got no clear call from the source; some entries with a clear call stand among them for comparison. The call rests on the fitted dose curve; tested in HEK293 cells. A potency beside an inconclusive call is a rough fit, not a confirmed value.
On the % scale 0 is the no-effect control and ±100 the full control effect; potency means the concentration at half of the fitted maximal effect.

Test: qHTS for inhibitors of binding or entry into cells for Marburg Virus
Details: Marburg virus pseudotyped entry inhibition, cell reporter; activity change, negative = inhibition: at 37.8 µM (top of the series) unless noted
For Cc1ccc(S(=O)(=O)N/N=c2\oc3ccccc3cc2C(=O)Nc2cccc(C)c2)cc1, the “activity change, negative = inhibition” value was inactive: 5.12%. With COc1cccc([C@@H]2Oc3ccc(Br)cc3C[C@@H]2OC(=O)N[S+](=O)([O-])c2ccc(C)cc2)c1 the Potency was inconclusive: 0.0106 µM [activator, full curve, poor fit]. In the case of CCCn1c(=O)c(C)cn2nc(N)nc12, the Potency is reported as “inactive”. For COCCCn1c(CCC(=O)O)ccc1-c1cccs1, the “activity change, negative = inhibition” value was inactive: -3.35%. With CCc1ccc(C2CC(=O)NC(NC(=O)c3ccc(C(C)(C)C)cc3)=N2)cc1 (stereo unspecified) the “activity change, negative = inhibition” value was inactive: 1.21% [at 46.1 µM]. In the case of FC(F)(F)c1cnc(Sc2nc3nccc(-c4ccc(Cl)cc4)n3n2)c(Cl)c1, the Potency is reported as inconclusive: 23.1 µM [inhibitor, single point]. With CC1CCN(C(=O)CCc2ccc(S(=O)(=O)NC(C)(C)C)cc2)CC1 the Potency was inconclusive: 32.6 µM [inhibitor, single point]. With Oc1cccc(/C=N/c2c(-c3ccco3)nc3ccccn23)c1 the “activity change, negative = inhibition” value was inactive: -2.99%. With O=C(NCc1ccco1)c1ccc(C(=O)NCc2ccco2)cc1 the “activity change, negative = inhibition” value was inactive: -8.33%. With O=C(CSc1ccc(-c2cccc([N+](=O)[O-])c2)nn1)N1CCCCC1 the “activity change, negative = inhibition” value was inactive: 0% [at 46.1 µM]. For NC(=S)Nc1cccc2cccnc12, the “activity change, negative = inhibition” value was inactive: 19.2%. For COc1ccc(Nc2nccc3c2nnn3C)cc1, the Potency was inconclusive: 0.92 µM [activator, partial curve, poor fit]. In the case of CC1CC(=O)N(CC(=O)Nc2ccc(F)cc2F)c2ccccc2S1 (stereo unspecified), the “activity change, negative = inhibition” value is reported as inactive: 9.3% [at 46.1 µM]. With O/C=c1\ccc2cccc3nc(C(F)(F)F)nc1c23 the Potency was inconclusive: 1.26 µM [inhibitor, single point]. In the case of Cc1onc(-c2ccccc2)c1C(=O)Nc1ccc(N2CCOCC2)cc1, the Potency is reported as inconclusive: 6.51 µM [inhibitor, single point]. For COc1ccc(NC(=O)C(C)n2c(C)c3cnn(-c4ccccc4)c(=O)c3c2C)cc1Cl (stereo unspecified), the Potency was inconclusive: 35.5 µM [inhibitor, single point]. For COc1ccc(OCCSc2nnc(Cc3cccc4ccccc34)n2N)cc1, the Potency was inconclusive: 15.8 µM [inhibitor, single point]. In the case of COc1ccc(N=Nc2nc(-c3ccccc3)c(-c3ccccc3)[nH]2)cc1, the Potency is reported as inconclusive: 7.08 µM [inhibitor, partial curve, poor fit]. With CN(CCc1ccccn1)C(=O)CCC1CCCN(C(=O)c2c3c(nn2C)CCCC3)C1 (stereo unspecified) the “activity change, negative = inhibition” value was inactive: 17.5% [at 46.1 µM]. With CC(C)S(=O)(=O)N1CCN(c2ccnc3cc(Cl)ccc23)CC1 the Potency was inconclusive: 3.55 µM [activator, single point]. In the case of CCOc1ccc(-c2nnc(-c3ccco3)o2)cc1OCC, the “activity change, negative = inhibition” value is reported as inactive: -24.3%. For O=C(CCC(=O)NNC(=O)Cc1ccccc1)NCc1ccccc1, the Potency was inconclusive: 3.16 µM [inhibitor, single point]. For COc1cccc([C@@H]2Oc3ccc(OC)cc3C(=O)[C@H]2OC(=O)N[C@H]2CCCc3ccccc32)c1, the Potency was inconclusive: 0.168 µM [activator, full curve, poor fit]. In the case of O=C1c2ccccc2NC(c2ccc(-c3ccc(Br)cc3)o2)N1O (stereo unspecified), the Potency is reported as inconclusive: 14.6 µM [inhibitor, partial curve, poor fit]. With O=C(NCCc1ccccc1)c1ccc(CSc2nc3ccncc3n2Cc2ccccc2F)cc1 the Potency was inconclusive: 8.91 µM [activator, partial curve]. With CCOc1ccc(C(C)=O)cc1COC(=O)c1ccccc1C(=O)N(C)Cc1ccccc1 the Potency was inconclusive: 12.6 µM [inhibitor, single point]. For COc1ccc(OCCC(=O)N2CCCCC2)cc1, the “activity change, negative = inhibition” value was inactive: -0.585%. With COc1ccc(C(=O)n2nc(-c3ccccc3)nc2SC)cc1 the “activity change, negative = inhibition” value was inactive: 29.5%. In the case of O=c1[nH]c(CSc2ncc(-c3ccc(F)cc3)n2Cc2ccco2)nc2ccccc12, the Potency is reported as inconclusive: 2.06 µM [inhibitor, partial curve, poor fit]. With CCN1CCN(CCCOc2ccccc2-c2ccccc2)CC1 the Potency was inconclusive: 18.3 µM [inhibitor, single point]. In the case of O=C(CSc1ccc(-c2ccncc2)nn1)c1ccc(Cl)cc1, the “activity change, negative = inhibition” value is reported as inactive: 7.36% [at 46.1 µM]. For Cc1cccc(NCC(=O)N/N=C\c2ccc[nH]2)c1, the Potency was active: 7.08 µM. With Cc1cc(=O)oc2cc(OCC(=O)OCC(=O)Nc3ccccc3C(C)C)ccc12 the “activity change, negative = inhibition” value was inactive: 2.34%. With CCn1c(SCC(=O)Nc2cccc(NC(C)=O)c2)nc2c([nH]c3ccccc32)c1=O the Potency was inconclusive: 35.5 µM [inhibitor, single point]. With CC(C)(CN1CCN(C(c2ccccc2)c2ccccc2)CC1)NS(=O)(=O)c1ccccc1 the Potency was inconclusive: 14.1 µM [inhibitor, partial curve, poor fit]. With CC(=O)N1c2c(cc(Br)cc2S(=O)(=O)N2CCN(c3ccccc3F)CC2)CC1C (stereo unspecified) the Potency was inconclusive: 25.1 µM [inhibitor, single point]. In the case of CCOC(=O)c1cnc2c(-c3ccc(Cl)cc3)cnn2c1C, the “activity change, negative = inhibition” value is reported as inactive: -1.69% [at 46.1 µM]. With CC(C)OC(=O)Nc1ccc2c(c1)N(C(=O)N1CCN(C)CC1)c1ccccc1CC2 the Potency was inconclusive: 15.8 µM [inhibitor, single point]. In the case of COC(=O)N/N=C(\C)c1ccccc1OC(F)F, the “activity change, negative = inhibition” value is reported as inactive: -0.577%. In the case of CCCSc1sc(C(=O)OC)c(-c2cccs2)c1C#N, the Potency is reported as inconclusive: 8.91 µM [inhibitor, partial curve]. With CCN(CC(=O)Nc1c(F)cccc1F)C(=O)c1ccc(NC(=O)CC2SC(N3CCCC3)=NC2=O)cc1 (stereo unspecified) the “activity change, negative = inhibition” value was inactive: -11.1%. For O=C(NCc1ccccc1)C(c1ccco1)N(C(=O)c1csnn1)c1ccccc1 (stereo unspecified), the “activity change, negative = inhibition” value was inactive: -14.7% [at 46.1 µM]. With CN(CC(=O)Nc1cccc(F)c1)C(=O)c1ccccc1Cc1ccccc1 the Potency was inconclusive: 35.5 µM [inhibitor, partial curve, poor fit]. In the case of CCc1ccccc1OCC(=O)Nc1cc(S(=O)(=O)N2CCOCC2)ccc1N1CCCCC1, the Potency is reported as inconclusive: 20 µM [inhibitor, partial curve, poor fit]. In the case of COc1ccc(CCNC(=O)CC(c2ccccc2)c2cccc(C)c2O)cc1OC (stereo unspecified), the Potency is reported as inconclusive: 15.8 µM [inhibitor, partial curve, poor fit]. With COc1ccc(C2CC(=O)c3c([nH]c(C(=O)OC4CCCCCC4)c3C)C2)cc1OC (stereo unspecified) the “activity change, negative = inhibition” value was inactive: -6.21% [at 46.1 µM]. In the case of CN(C)C(=O)CSc1nnc([C@@H](N)Cc2ccccc2)o1, the “activity change, negative = inhibition” value is reported as inactive: -10.5%. For C/C(=N\NC(=S)Nc1ccccc1C)c1cc2ccccc2o1, the Potency was inconclusive: 17.8 µM [inhibitor, single point]. In the case of O=C(NCC(=O)N(Cc1cccs1)C(C(=O)NC1CCCCC1)c1ccco1)c1ccco1 (stereo unspecified), the Potency is reported as inconclusive: 35.5 µM [inhibitor, partial curve, poor fit]. For COc1ccc(-c2cc(C(=O)N3CCN(c4ccc(F)cc4)CC3)no2)cc1OC, the Potency was inconclusive: 3.98 µM [inhibitor, partial curve, poor fit]. In the case of COC(=O)c1ccccc1NC(=O)CCc1c(C)nc2c(c(C)nn2-c2ccccc2)c1C, the “activity change, negative = inhibition” value is reported as inactive: 11.8% [at 46.1 µM]. With O=C(OCC(=O)N1N=C(c2ccc(Cl)cc2)CC1c1ccco1)c1ccccc1O (stereo unspecified) the Potency was inconclusive: 35.5 µM [inhibitor, single point]. For CC(=O)Nc1ccc(S(=O)(=O)Nc2nc3ccc(C)cc3s2)cc1, the “activity change, negative = inhibition” value was inactive: 4.51%. In the case of O=C(NCCCN1CCCC1)c1ccc2c(Cl)c3c(nc2c1)CCCC3, the Potency is reported as active: 5.62 µM. In the case of O=C(Nc1ccc(Oc2cccnc2)cc1)C1CCN(Cc2ccccc2)CC1, the Potency is reported as inconclusive: 39.8 µM [inhibitor, partial curve, poor fit]. In the case of CCCC(=O)NC(Nc1ccccc1F)C(Cl)(Cl)Cl (stereo unspecified), the “activity change, negative = inhibition” value is reported as inactive: 3.64%. In the case of O=c1[nH]c2ccccc2nc1/C=C(\O)C(F)F, the Potency is reported as inconclusive: 12.6 µM [activator, single point]. In the case of C=CCn1c(-c2cccc(OCC)c2)n[nH]c1=S, the “activity change, negative = inhibition” value is reported as inactive: -0.0507% [at 46.1 µM]. In the case of C#CCN(C(=O)c1cc(COc2ccc(C)c(C)c2)on1)C1CCCCC1, the Potency is reported as inconclusive: 35.5 µM [inhibitor, single point]. In the case of CN([C@@H](Cc1ccc(OS(=O)(=O)c2cccc3cnccc23)cc1)C(=O)N1CCN(c2ccccc2)CC1)S(=O)(=O)c1cccc2cnccc12, the Potency is reported as inconclusive: 2.59 µM [inhibitor, full curve, poor fit]. With O=C(OCC(=O)N1CCOCC1)c1ccc(Cl)cc1[N+](=O)[O-] the “activity change, negative = inhibition” value was inactive: 4.02% [at 46.1 µM]. In the case of Cc1ccc(C)n1-c1ccc(-c2nnco2)cc1, the “activity change, negative = inhibition” value is reported as inactive: 1.25%. With CCCn1c(C)cc(=O)c2cc(NC(=O)c3ccccn3)ccc21 the Potency was inconclusive: 35.5 µM [inhibitor, single point]. For Cc1ccc(CNC(=O)c2sc3nc(-c4ccc(F)cc4)ccc3c2N)cc1, the “activity change, negative = inhibition” value was inactive: 18.1% [at 46.1 µM]. For CCn1c(=S)sc2c(=O)n(-c3ccccc3)c(=S)[nH]c21, the Potency was inconclusive: 35.5 µM [inhibitor, single point]. In the case of COC(=O)C1=C(C(=O)OC)C(c2ccc(OC)c(OC)c2)c2sc(=O)[nH]c2S1 (stereo unspecified), the Potency is reported as inconclusive: 6.31 µM [activator, partial curve, poor fit]. In the case of Cn1c(CNc2nc(-c3ccccc3)cs2)nnc1SCC(=O)OC1CCCCC1, the “activity change, negative = inhibition” value is reported as inactive: -9.38%. For COc1ccc(-c2[nH]ncc2CN2CCCN(c3ccccc3)CC2)c(F)c1, the Potency was inconclusive: 15.8 µM [inhibitor, single point]. In the case of CC1CCCCN1Cc1c(O)ccc2c(=O)c(-c3ccccc3)coc12 (stereo unspecified), the Potency is reported as inconclusive: 0.631 µM [inhibitor, full curve, poor fit]. For COc1ccc(C/C(N)=N/OC(C)=O)cc1OC, the Potency was inconclusive: 2 µM [inhibitor, full curve, poor fit]. With CC(C)(C)c1ccc(-c2nc(S(=O)(=O)c3ccccc3)c(N3CCOCC3)o2)cc1 the Potency was inconclusive: 20 µM [inhibitor, single point].
